Screen size: about 310,000 compounds; about 17,000 (5.5%) were called active. Inconclusive results, whose numbers are uncertain, are shown with a selection of clear calls. The call rests on the fitted dose curve; in most records, active means well fitted inhibition curve with a large enough effect; inconclusive means small, poorly fitted or top-dose-only effect, or effect the other way; inactive means no such curve, though single readings can be large or run the other way. Where the call is inconclusive, the potency comes from a doubtful curve fit.
Biological target: Nuclear receptor ROR-gamma (Mus musculus) (UniProt P51450)
Experiment: qHTS for inhibitors of ROR gamma transcriptional activity; further: nearly all actives have a fitted effect of over 60% in size
Settings: Drosophila S2 Gal4-RORgamma UAS-luciferase reporter, 20 h; activity change, negative = inhibition: at 53.6 µM (top of the series)
Method in brief: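 Luciferase reporter read in Schneider cells carrying Gal4-RORγ (mouse) and UAS-Photinus luciferase; cells given compound 1 h before 700 uM copper sulfate induction, then incubated 20 h at ambient temperature.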
On the % scale 0 is the no-effect control and ±100 the full control effect; potency means the concentration at half of the fitted maximal effect.

The chains behind the UniProt entries cited, without tags or fusion partners. Where a name states a change or a piece, a line headed by the entry shows the natural chain unless it says otherwise.
UniProt P51450: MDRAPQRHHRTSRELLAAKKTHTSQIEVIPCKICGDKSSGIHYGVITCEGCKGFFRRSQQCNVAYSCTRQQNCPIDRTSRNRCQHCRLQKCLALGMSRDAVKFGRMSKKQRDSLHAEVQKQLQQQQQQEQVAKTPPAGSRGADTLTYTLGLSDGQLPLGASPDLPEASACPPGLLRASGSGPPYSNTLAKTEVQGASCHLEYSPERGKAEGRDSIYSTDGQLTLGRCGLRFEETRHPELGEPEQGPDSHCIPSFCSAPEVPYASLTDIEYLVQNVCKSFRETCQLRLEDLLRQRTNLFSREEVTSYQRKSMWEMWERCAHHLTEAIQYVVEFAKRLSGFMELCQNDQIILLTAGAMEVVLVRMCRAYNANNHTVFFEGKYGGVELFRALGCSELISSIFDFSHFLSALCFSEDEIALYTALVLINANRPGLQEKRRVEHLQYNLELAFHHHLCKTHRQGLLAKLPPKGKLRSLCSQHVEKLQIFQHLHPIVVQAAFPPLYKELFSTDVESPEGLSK

Activity change, negative = inhibition, inactive:
CCOC(=O)C1CCN(Cc2ccc(Cl)c(Cl)c2)CC1 8.39%
O=C(NCCc1ccccc1)c1ccc(OCCOc2ccccc2)cc1 3.42%
CC(=O)c1cccc(NC(=S)NCCCCc2ccccc2)c1 -164%
O=C(c1ccc2c(c1)OCCO2)C1CCN(C(=O)Nc2ccc(F)cc2)CC1 8%
CCN1C(=O)[C@H]2[C@H]3[C@H](O)[C@H](O)C/C(=N/OCc4ccccc4)[C@H]3CC[C@@H]2C1=O -5.46% [at 10 µM]
Cc1ccccc1CSc1nnc(-c2cccs2)n1Cc1ccco1 -13.7%
O=C1CC(N2CCN(c3ncccn3)CC2)C(=O)N1CCc1ccccc1 (stereo not given) 7.98%
CC1CCC(NS(=O)(=O)c2ccc3c(c2)CC(=O)N3)CC1 (stereo not given) 4.09%
COC(=O)c1cc(S(=O)(=O)Nc2ccc(C)c(F)c2)c[nH]1 11.3%
CC1CN(C(=O)NCc2ccccc2)c2cc(Cl)ccc2O1 (stereo not given) 27%
CCc1ccc(OCC(=O)N2CCN(c3ccccc3F)CC2)cc1 35.8%
O=C(Nc1ccc(Cl)c(Cl)c1)C1C2C=CC3(O2)C1C(=O)N(CCN1CCCCC1)C3C(=O)NC1CCCCC1 (stereo not given) -1.5%
CCOc1ccc(CC(=O)Nc2c(C(=O)Nc3ccccc3)oc3ccccc23)cc1OCC 0.856%
Cc1ccc(/C=N/NC(=O)NC23CC4CC(CC(C4)C2)C3)o1 30.5%

Activity change, negative = inhibition, inconclusive:
CCN(CC(=O)Nc1ccc(C)c(S(=O)(=O)N(C)C)c1)Cc1ccccc1 49.9% [activator]

Potency, inconclusive:
Fc1ccc(Cn2nnc(-c3ccc(CN4CCOCC4)cc3)n2)cc1 12.6 µM [activator, partial curve]
O=C(O)COc1ccc(/C=N/Nc2nc(Nc3ccccc3)nc(N3CCCCC3)n2)cc1 20 µM [inhibitor, single point]
Cc1ccc(CN2CCSc3ccc(C(=O)NC4CCN(Cc5ccccc5)CC4)cc32)cc1 14.1 µM [inhibitor, single point]
CS(=O)(=O)NCCCNc1c(Cl)cccc1[N+](=O)[O-] 6.31 µM [inhibitor, single point]
COc1ccc2c(c1)Cc1sc(NC(=O)c3cccnc3)nc1-2 35.5 µM [inhibitor, single point]
N=C1/C(=C\c2ccc(OC(=O)c3ccccc3)cc2)C(=O)N=C2SC(N3CCOCC3)=NN12 22.4 µM [inhibitor, single point]
Cc1cc(C(=O)NNC(=S)Nc2ccccc2C)cs1 3.98 µM [inhibitor, partial curve]
N#Cc1c(NC(=O)c2cc(-n3cnnc3)ccc2Cl)sc2c1CCCC2 22.4 µM [activator, single point]
CCc1ccc(C2(O)CC(C(F)(F)F)=NN2C(=O)Cc2ccc([N+](=O)[O-])cc2)cc1 (stereo not given) 10 µM [activator, partial curve]
COc1ccc(C(=O)/C=C2/c3ccccc3CC(C)(C)N2C)cc1OC 22.4 µM [activator, single point]
NNc1nc2c(Cl)c(Cl)ccc2s1 11.2 µM [inhibitor, partial curve]
O=C(O)/C=C\C(=O)Nc1ccccc1C#Cc1ccc(Br)cc1 35.5 µM [activator, single point]
c1ccc(C2[C@H]3CN(Cc4cccnc4)[C@H](c4ccccc4)C34CC2(c2cccnc2)C4)cc1 (stereo not given in full) 15.8 µM [inhibitor, single point]
c1csc(CNc2nc(-c3ccoc3)nc3ccccc23)c1 5.62 µM [activator, single point]
Cc1ccccc1NC(=S)N1CCC(C(=O)c2ccc(F)cc2)CC1 35.5 µM [inhibitor, single point]
COC(=O)Cc1ccc(NC(=S)N2CCN(c3cccc(O)c3)CC2)cc1 14.1 µM [activator, partial curve]
Cc1ccc(/C=C2/C(=N)N3N=C(CC(=O)N4CCCC4)SC3=NC2=O)o1 35.5 µM [activator, single point]
COc1ccccc1NC(=O)N1CCCC1C(=O)NCc1ccccc1Cl (stereo not given) 14.1 µM [inhibitor, single point]
CCn1c(=O)cc(C(F)(F)F)[nH]c1=S 15.8 µM [inhibitor, single point]
Cc1cc(C)cc(C(=O)OCC(=O)Nc2cccc(S(=O)(=O)NC3=NCCCCC3)c2)c1 15.8 µM [activator, partial curve]
O=C(Nc1ccc2[nH]ncc2c1)c1ccccc1 28.2 µM [inhibitor, single point]
CC(=O)NNc1ncnc2c1cnn2-c1ccc(C)c(Cl)c1 11.2 µM [inhibitor, single point]
CCCCCCCCC(=O)Nc1cc(C)ccc1OC 31.6 µM [activator, single point]
N#Cc1c(-c2ccc(F)cc2)cc(C2CC2)nc1SCC(=O)c1cccs1 0.005 µM [activator, full curve, poor fit]
CCOc1ccc(Nc2oc(-c3ccccc3Cl)nc2C#N)cc1 12.6 µM [activator, partial curve, poor fit]
Cc1onc(-c2ccccc2)c1C(=O)N/N=C/c1cccs1 5.62 µM [inhibitor, partial curve, poor fit]
O=S(=O)(NCc1ccccc1Cl)c1ccc(-n2cccn2)cc1 17.8 µM [activator, single point]
Cc1ccc(S(=O)(=O)Nc2ccc3oc(=O)sc3c2)c(C)c1 35.5 µM [inhibitor, single point]
O=C(c1cc(-c2ccco2)nn1-c1cccc(Cl)c1)N1CCCCC1 11.2 µM [inhibitor, single point]
N#Cc1c(Cl)nc(SCc2ccccc2)nc1-c1ccccc1 5.62 µM [activator, single point]
O=C(Cc1ccc(Br)cc1)N1CCN(c2ccc(F)cc2)CC1 12.6 µM [activator, partial curve, poor fit]
CC(=O)c1c(C)[nH]c(C(=O)Nc2cccc(C)n2)c1C 14.1 µM [inhibitor, single point]
CC1(C)NC(=O)N(CCCCOc2cccc(C(F)(F)F)c2)C1=O 20 µM [activator, single point]
CCCCCCCNC1=CC(=O)CC(c2ccccc2)C1 (stereo not given) 28.2 µM [inhibitor, single point]
Cc1ccc(NS(=O)(=O)c2csc(C(N)=O)c2)c(C)c1 12.6 µM [activator, single point]
O=C(Nc1nc2ccc(Cl)cc2s1)[C@@H]1CCCN1C(=O)c1cccs1 12.6 µM [activator, partial curve]
CCOC(=O)C1=NN(c2ccccc2)C(=O)/C1=C\c1ccc(N(C)C)cc1 35.5 µM [inhibitor, single point]
O=C(c1ccc2c3n(nc2c1)-c1ccccc1CO3)N1CCCCC1 15.8 µM [inhibitor, single point]
O=C(Nc1ccccc1)C1=C[C@H](c2ccccc2)C[C@H](OCc2ccc(CO)cc2)O1 15.8 µM [activator, partial curve]
OCc1ccccc1NC(=S)Nc1cccnc1 12.6 µM [inhibitor, single point]
CCOc1ccc(S(=O)(=O)/N=C(\N)c2ccccc2)cc1 31.6 µM [activator, single point]
CC(C)(C)c1cc(=O)n2c(nc3ccccc32)[nH]1 35.5 µM [inhibitor, single point]
COC(=O)[C@@]1(Cc2ccc(OC)cc2)[C@@H]2[C@@H](CC(=O)[C@H]2CC(=O)C(=O)N(C)C)CN1C(=O)c1ccccc1 10 µM [activator, single point]
Cc1ccc(-n2c(C)cc(C(=O)COc3c(CO)cc(F)cc3CO)c2C)cc1C 35.5 µM [activator, single point]
COC(=O)C(C)Sc1nc2c(c(=O)n(C)c(=O)n2C)n1CCC(C)C (stereo not given) 17.8 µM [activator, partial curve]

Retrieved by structure from above:
Potency, inconclusive:
O=C(Nc1ccccc1)C1=C[C@H](c2ccccc2)C[C@H](OCc2ccc(CO)cc2)O1 15.8 µM [activator, partial curve]
CCOc1ccc(S(=O)(=O)/N=C(\N)c2ccccc2)cc1 31.6 µM [activator, single point]

Next part.

Potency, active:
CN(C)c1ccc(/C=N/NC(N)=S)cc1[N+](=O)[O-] 17.8 µM
O=C(Cc1csc(Nc2nc(=S)[nH]c3ccccc23)n1)NCCCN1CCN(c2cccc(Cl)c2)CC1 2.51 µM
CCN(CC)S(=O)(=O)c1ccc(NN)nc1 4.47 µM
O=C(Nc1nccs1)c1ccc(-c2ccc(Cl)cc2)o1 3.98 µM
CCc1ccc(NC(=S)NCc2ccccc2)cc1 2.24 µM
O=C(Cc1ccccc1)N1N=C(c2ccncc2)CC1(O)C(F)(F)F (stereo not given) 7.08 µM
COc1cccc(-c2cc3c(=O)n(-c4ccccc4)c(=S)[nH]c3s2)c1 0.891 µM
O=C(NC(=S)N1CCN(C(c2ccccc2)c2ccccc2)CC1)c1ccc(S(=O)(=O)N2CCOCC2)cc1 0.316 µM
COc1ccc(NC(=O)c2nc[nH]c2C(=O)N[C@@H](CC(C)C)C(=O)OC(C)(C)C)cc1 5.62 µM
Cc1oc2cc3c(C(=O)N4CCCCC4)c(C)oc3cc2c1C(=O)N1CCCCC1 2 µM

— PubChem BioAssay AID2551 (National Center for Advancing Translational Sciences (NCATS), 2010)
